Among the data in ChEMBL document CHEMBL5518206, “Hit-to-Lead Identification and Validation of a Triaromatic Pleuromutilin Antibiotic Candidate” (J Med Chem, 2024) are solubility and Papp A→B values, retold here.

The nature of data set [1]: Solubility of the compound in Dulbecco's PBS at 20 degree C measured after 24 hrs. The following applies: buffer.
The nature of data set [2]: in vitro. The following applies: human, Caco-2.

Converted amounts (≈) assume the structure as drawn.

The term solubility denotes the concentration that dissolves in the medium under given conditions. Read a high solubility as much dissolved substance. As usually defined, the Papp A→B is how fast a substance crosses the layer from the apical side. A high value points to fast passage. `C=C[C@]1(C)C[C@@H](OC(=O)Cn2cc(-c3ccc(Cn4cnc5c(N6CCN(C)CC6)ncnc54)cc3)nn2)[C@]2(C)[C@H](C)CC[C@]3(CCC(=O)[C@H]32)[C@@H](C)[C@@H]1O`: the concentration in solution in data set [1] (solubility at 24 h) was 23 µM (≈ 16.9 µg/mL). Further, the Papp A→B at 2 h, 20 µM in data set [2] stood at 2.38 ×10⁻⁶ cm/s.
